For at least one entry, the source does not settle the construct or the ends of the probe. For part of these data: A weaker result is weaker than the reference pair of the same experiment. For part of these data: At least one verdict rests on a figure or table, not on a statement of the authors. Protein sequences can lack the tags named with them.

By Kd is commonly meant the equilibrium constant for the complex coming apart.

The target in one series is T1, EcTopoI (topoisomerase I) (Escherichia coli DY330) (UniProt P06612).
T1 sequence (looked up, limits assumed): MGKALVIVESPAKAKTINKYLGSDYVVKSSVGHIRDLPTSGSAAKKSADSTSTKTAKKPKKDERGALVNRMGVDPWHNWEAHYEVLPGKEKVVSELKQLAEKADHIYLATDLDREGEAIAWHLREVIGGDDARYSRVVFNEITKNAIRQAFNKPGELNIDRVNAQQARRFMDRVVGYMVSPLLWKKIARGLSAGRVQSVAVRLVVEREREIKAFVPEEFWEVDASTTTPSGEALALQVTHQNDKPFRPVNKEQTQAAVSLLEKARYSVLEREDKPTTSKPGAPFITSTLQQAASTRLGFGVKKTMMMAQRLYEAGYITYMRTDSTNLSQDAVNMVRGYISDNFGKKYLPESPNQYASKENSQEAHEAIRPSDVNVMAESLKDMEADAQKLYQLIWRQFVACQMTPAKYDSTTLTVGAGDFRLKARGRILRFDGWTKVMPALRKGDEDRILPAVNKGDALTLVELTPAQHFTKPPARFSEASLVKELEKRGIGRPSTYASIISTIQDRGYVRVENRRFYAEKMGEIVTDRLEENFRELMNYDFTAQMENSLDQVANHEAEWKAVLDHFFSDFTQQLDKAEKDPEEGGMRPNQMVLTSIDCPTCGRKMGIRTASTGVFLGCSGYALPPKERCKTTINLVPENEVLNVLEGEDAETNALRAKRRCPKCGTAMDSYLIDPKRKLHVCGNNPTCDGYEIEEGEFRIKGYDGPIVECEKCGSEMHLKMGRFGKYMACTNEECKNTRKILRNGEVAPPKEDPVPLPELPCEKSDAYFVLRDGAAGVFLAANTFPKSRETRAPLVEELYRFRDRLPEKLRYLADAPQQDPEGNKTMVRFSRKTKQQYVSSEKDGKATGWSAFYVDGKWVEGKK
Description: competition with a labelled probe. The following applies: vs labeled consensus, complex refractory up to 16-fold excess; EMSA: 10 mM Tris-HCl pH 7.5, 50 mM NaCl, 6 mM MgCl2, 37 C 10 min; recombinant protein; single-stranded DNA. For orientation: Mobility shift assays separate free from complexed probe on a gel.
For the sequence “CGCTCCGCACTGCGGATTACGTGCGC [Random R, unlabeled]”, the binding result is on record as “binds more weakly”.
In the case of “GCGCACGTAATCCGCAGTGCGGTGCG [Random F, unlabeled]”, the binding result is “binds more weakly”.
For the sequence “GCGTTTTTTTTTTTTTTTTTTTTGCG [Poly-T, unlabeled]”, the binding result is listed as “binds more weakly”.

The same series, now with this note: vs labeled control oligos, 50-90% dissociation at 1:1 for consensus oligos; EMSA: 10 mM Tris-HCl pH 7.5, 50 mM NaCl, 6 mM MgCl2, 37 C 10 min; recombinant protein; single-stranded DNA.
On to “CGCAAAAATAATGAAGAAAAAAACGC [Consensus R, unlabeled]”, for which the binding result is reported as “binds”.
With “GCGTTTTTTTCTTCATTATTTTTGCG [Consensus F, unlabeled]”, the binding result is listed as “binds”.

The target in a further series is T1, EcTopoI (topoisomerase I) (Escherichia coli DY330). The experiment in a line: EMSA. The following applies: 6 mM Mg2+, value assigned from figure text order; EMSA: 10 mM Tris-HCl pH 7.5, 50 mM NaCl, 6 mM MgCl2, 37 C 10 min; recombinant protein; label: 5'-Cy5; single-stranded DNA.
Turning to CGCAAAAAAAAAAAAAAAAAAAACGC [Poly-A], the Kd came out at 223 nM.
Same read-out and setting: the result for CGCTCCGCACTGCGGATTACGTGCGC [Random R] reads 457 nM; that for GCGCACGTAATCCGCAGTGCGGTGCG [Random F], 357 nM; that for GCGTTTTTTTTTTTTTTTTTTTTGCG [Poly-T], 290 nM.

(Values after paper PMC9352719, “Interaction between transcribing RNA polymerase and topoisomerase I prevents R-loop formation in E. coli”.)
